Some of the results follow.

By UniProt entry, the sequences of proteins in these tests, tags left out. Where a name states a change or a piece, a line headed by the entry shows the natural chain unless it says otherwise.
UniProt Q9UBS3: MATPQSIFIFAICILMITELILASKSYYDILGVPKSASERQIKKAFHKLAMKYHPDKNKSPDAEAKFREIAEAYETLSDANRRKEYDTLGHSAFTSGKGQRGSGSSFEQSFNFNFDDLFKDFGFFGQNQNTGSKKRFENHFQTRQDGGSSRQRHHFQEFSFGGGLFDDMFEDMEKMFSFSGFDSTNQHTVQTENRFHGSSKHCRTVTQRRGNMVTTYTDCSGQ
UniProt P49184: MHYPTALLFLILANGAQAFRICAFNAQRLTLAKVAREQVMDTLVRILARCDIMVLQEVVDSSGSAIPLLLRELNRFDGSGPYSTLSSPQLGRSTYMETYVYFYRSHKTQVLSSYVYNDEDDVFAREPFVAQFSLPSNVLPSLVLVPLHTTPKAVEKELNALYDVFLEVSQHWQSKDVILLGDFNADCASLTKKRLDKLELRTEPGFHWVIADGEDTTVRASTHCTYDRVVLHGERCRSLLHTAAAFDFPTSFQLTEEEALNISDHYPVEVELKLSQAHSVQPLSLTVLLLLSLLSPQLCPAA
UniProt Q9UGM3: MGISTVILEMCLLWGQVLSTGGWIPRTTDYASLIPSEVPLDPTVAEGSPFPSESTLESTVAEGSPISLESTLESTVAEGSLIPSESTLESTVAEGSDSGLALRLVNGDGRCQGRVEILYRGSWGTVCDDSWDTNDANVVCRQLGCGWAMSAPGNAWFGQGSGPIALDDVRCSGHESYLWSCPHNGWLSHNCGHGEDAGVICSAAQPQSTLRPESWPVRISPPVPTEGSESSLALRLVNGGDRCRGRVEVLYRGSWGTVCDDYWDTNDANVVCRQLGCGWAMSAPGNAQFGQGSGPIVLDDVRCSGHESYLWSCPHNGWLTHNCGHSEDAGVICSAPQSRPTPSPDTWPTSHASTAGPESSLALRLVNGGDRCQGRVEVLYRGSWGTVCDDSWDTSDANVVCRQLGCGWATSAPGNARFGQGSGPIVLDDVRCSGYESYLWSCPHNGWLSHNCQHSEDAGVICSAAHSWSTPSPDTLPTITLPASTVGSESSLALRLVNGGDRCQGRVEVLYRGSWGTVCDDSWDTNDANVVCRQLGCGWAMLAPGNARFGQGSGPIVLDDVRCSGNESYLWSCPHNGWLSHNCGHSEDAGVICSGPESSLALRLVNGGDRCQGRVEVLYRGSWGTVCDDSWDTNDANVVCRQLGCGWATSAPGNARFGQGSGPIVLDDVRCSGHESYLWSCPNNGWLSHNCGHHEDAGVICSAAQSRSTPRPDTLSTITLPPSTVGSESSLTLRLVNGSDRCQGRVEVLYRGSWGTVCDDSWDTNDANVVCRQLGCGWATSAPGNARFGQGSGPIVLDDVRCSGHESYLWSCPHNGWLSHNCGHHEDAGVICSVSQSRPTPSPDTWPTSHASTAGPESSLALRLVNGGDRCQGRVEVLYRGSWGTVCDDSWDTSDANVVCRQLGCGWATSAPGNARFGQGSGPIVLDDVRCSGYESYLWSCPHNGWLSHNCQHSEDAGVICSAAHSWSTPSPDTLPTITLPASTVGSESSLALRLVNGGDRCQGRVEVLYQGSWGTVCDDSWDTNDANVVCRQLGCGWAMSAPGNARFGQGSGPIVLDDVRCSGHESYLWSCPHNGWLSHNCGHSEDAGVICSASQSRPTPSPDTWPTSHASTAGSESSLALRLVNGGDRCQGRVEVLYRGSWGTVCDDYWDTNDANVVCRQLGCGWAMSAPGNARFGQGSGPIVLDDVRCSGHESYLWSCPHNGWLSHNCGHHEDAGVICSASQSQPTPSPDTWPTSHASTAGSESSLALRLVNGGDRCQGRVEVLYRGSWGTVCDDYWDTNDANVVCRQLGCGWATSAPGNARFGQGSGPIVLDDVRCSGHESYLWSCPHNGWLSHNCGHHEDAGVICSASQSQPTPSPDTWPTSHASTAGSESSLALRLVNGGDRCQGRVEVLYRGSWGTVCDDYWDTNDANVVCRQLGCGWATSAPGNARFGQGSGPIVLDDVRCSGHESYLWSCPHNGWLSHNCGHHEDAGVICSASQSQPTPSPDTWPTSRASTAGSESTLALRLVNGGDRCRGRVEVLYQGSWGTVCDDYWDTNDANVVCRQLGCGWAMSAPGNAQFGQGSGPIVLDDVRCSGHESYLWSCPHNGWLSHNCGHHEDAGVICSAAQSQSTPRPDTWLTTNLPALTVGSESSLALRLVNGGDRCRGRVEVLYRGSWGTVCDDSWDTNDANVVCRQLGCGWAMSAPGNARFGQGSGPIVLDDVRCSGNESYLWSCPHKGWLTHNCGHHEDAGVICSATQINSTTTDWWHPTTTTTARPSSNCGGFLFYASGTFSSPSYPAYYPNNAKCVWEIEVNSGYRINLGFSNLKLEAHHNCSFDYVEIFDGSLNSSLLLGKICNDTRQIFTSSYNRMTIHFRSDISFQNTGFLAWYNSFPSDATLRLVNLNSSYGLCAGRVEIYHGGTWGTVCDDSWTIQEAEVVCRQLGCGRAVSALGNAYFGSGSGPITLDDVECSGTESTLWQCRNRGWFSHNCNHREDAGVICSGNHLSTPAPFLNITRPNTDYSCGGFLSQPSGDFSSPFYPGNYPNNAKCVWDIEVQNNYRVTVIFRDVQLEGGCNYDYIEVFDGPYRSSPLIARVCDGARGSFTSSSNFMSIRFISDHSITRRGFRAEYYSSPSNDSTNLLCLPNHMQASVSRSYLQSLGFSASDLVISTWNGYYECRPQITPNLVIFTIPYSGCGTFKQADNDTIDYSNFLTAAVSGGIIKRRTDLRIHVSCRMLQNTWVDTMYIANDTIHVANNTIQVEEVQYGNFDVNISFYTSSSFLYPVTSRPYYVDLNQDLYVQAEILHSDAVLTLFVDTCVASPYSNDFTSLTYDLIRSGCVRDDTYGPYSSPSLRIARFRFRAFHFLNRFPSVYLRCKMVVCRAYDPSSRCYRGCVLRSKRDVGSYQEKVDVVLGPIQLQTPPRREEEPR
UniProt P52824: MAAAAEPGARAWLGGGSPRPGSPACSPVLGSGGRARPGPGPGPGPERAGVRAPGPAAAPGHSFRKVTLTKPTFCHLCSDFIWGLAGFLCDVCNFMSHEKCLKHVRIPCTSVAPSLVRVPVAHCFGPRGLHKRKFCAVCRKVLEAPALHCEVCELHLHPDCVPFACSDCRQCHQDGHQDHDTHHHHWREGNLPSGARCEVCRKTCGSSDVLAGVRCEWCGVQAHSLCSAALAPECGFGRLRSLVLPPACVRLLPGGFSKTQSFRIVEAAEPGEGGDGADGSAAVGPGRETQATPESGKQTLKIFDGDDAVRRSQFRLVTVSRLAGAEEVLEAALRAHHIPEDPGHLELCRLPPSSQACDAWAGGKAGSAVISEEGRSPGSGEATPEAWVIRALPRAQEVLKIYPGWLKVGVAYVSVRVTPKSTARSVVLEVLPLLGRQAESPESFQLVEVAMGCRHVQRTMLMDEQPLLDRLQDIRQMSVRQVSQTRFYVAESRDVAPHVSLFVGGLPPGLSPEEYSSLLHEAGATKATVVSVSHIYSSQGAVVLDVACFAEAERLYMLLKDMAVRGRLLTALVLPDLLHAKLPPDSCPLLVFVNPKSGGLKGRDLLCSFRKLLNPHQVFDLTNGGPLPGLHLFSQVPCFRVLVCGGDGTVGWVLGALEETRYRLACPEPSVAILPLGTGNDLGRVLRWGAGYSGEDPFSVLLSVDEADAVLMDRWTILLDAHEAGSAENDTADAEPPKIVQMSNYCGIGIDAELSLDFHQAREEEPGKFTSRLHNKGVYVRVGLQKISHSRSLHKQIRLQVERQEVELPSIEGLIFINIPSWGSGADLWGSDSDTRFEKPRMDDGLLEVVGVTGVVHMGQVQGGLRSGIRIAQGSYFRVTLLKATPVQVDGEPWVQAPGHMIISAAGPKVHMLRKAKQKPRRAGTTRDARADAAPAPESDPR
UniProt Q9H147: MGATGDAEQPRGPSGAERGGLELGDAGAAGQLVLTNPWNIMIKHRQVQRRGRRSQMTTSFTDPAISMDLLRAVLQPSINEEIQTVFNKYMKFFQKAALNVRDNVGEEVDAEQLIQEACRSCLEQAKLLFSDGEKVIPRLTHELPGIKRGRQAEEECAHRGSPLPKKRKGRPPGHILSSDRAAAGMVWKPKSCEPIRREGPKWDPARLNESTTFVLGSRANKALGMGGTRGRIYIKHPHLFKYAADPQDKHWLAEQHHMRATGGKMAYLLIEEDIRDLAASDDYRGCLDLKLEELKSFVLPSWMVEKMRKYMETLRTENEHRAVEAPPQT
UniProt Q07687: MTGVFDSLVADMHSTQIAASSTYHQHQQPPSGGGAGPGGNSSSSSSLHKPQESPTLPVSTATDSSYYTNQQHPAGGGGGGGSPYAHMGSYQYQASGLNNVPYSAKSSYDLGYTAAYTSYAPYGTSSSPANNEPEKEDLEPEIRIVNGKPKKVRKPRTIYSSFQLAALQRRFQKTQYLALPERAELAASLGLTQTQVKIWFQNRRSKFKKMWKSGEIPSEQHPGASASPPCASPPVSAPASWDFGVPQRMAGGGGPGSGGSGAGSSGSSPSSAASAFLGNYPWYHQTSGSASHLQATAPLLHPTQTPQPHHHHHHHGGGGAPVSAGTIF
UniProt Q5SXM8: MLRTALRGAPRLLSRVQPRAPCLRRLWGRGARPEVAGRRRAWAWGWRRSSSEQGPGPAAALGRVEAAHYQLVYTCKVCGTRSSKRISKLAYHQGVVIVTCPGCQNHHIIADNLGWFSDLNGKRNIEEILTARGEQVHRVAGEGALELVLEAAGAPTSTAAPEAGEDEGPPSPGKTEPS
UniProt Q9BY27: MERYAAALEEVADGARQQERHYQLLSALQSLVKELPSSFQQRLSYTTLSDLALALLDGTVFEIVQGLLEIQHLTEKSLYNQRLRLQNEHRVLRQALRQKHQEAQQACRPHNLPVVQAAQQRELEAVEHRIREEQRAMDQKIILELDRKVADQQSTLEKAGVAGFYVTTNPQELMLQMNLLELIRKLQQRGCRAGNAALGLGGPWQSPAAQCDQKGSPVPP
UniProt Q96GE9: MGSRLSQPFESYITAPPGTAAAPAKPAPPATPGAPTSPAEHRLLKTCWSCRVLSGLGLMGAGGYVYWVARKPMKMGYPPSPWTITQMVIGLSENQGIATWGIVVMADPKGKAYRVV
UniProt O60496: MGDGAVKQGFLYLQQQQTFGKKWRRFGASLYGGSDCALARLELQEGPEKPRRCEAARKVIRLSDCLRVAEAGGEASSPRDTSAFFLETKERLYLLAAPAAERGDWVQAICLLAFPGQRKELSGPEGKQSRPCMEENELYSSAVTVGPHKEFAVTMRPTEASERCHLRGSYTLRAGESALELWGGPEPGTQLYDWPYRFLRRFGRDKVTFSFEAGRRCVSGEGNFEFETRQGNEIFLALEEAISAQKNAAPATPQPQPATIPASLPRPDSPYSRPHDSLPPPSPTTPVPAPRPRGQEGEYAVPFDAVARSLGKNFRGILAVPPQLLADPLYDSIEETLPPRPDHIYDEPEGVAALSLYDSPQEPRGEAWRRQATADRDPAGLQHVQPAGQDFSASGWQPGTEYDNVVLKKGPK
UniProt Q6P3W2: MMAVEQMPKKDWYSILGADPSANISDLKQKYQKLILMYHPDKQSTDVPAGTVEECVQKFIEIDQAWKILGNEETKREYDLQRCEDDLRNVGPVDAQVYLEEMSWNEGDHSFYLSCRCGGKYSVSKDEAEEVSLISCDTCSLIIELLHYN
UniProt P50570: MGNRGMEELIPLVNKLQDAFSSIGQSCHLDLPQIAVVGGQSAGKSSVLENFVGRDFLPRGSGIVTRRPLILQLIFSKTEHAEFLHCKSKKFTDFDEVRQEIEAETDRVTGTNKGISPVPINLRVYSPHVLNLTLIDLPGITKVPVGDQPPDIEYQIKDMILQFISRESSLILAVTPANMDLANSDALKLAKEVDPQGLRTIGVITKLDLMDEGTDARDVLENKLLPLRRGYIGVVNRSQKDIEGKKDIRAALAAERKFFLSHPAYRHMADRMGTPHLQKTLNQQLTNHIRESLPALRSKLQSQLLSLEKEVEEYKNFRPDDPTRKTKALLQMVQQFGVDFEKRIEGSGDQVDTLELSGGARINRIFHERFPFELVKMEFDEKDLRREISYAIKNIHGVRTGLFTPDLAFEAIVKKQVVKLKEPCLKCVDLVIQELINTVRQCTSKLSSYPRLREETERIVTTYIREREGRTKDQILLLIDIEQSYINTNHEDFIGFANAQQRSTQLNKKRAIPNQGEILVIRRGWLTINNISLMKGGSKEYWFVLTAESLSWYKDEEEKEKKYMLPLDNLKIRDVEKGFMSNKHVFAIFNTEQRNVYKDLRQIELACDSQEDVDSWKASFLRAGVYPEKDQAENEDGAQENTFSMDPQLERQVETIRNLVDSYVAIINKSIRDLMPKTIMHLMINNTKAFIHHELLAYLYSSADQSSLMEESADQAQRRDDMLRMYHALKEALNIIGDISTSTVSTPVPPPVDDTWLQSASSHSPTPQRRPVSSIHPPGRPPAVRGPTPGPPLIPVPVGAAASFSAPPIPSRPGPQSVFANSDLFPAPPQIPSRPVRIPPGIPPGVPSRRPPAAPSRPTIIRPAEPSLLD

From the supplement of paper PMC10849652 come the findings set out here.

Holding throughout (assay): log2 fold change, soluble protein after heating vs DMSO (PISA); higher = thermal stabilisation; K562 lysate, 10 uM; active = over 0.2 and 3.5 SD of the protein, either way, in both replicates (recomputed)
Compound in assay [1]: CC(=O)c1cnc2ccc(-c3cc(Cl)c(O)c(Cl)c3)nc2c1N[C@H]1CC[C@H](CN(C)C)CC1
The method in brief: (§1)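 Log-two fold change in thermal stability relative to solvent controls is reported from duplicates. For each sample, crude K562 extract from dounce-homogenised pellets in PBS pH 7.4 with 1 mM MgCl2, at 1 mg/mL protein, was treated with 10 μM compound for 30 min. Aliquots heated for 3 min across 48°C-58°C were pooled, brought to 0.5% NP-40 at 4°C and cleared at 21,000xg for 90 min. The supernatant was quantified by TMTpro 16plex LC-MS/MS with channel sums equalised.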

Compound in a further assay: CC(C)(C)Cn1c(N)nc2ccc(-c3[nH]c(C(C)(C)C)nc3-c3ccc(F)cc3)nc21 [ralimetinib]
The method, boiled down:
as §1

Compound in assay [2]: CC(C)(O)CC(=O)NCCn1ccc2ncnc(Nc3ccc(Oc4cccc(C(F)(F)F)c4)c(Cl)c3)c21
The method, boiled down:
as §1

Compound in assay [3]: CC(C)C1=C2N=C(C=C(N2N=C1)NCC3=CC=CC=C3)NCCCCCCN
The method, boiled down:
as §1

Compound in assay [4]: CC1=C(C2=C(C=C1)C(=O)C3=CC=CC=C3N2CCCN)C
The method, boiled down:
as §1

Compound in assay [5]: CC1=C(C=C(C=C1)NC(=O)C2=CC(=CC=C2)C(C)(C)C#N)NC3=CC4=C(C=C3)N=CN(C4=O)C
The method, boiled down: as §1

Compound in assay [6]: CC1=C(C=C(C=C1)NC(=O)C2=CC(=CC=C2)N(C)C)NC(=O)C3=CC=C(C=C3)O
The method, boiled down:
as §1

Compound in assay [7]: CC1=CC=C(C=C1)SC2=C3C=C(SC3=CN=C2)C(=O)N
The method in brief:
as §1

Compound in assay [8]: CC1=C(C(CC(=O)N1)C2=CC=C(C=C2)C(F)(F)F)C(=O)NC3=C(C=C4C(=C3)C=NN4)F
The method, boiled down: as §1

Compound in a further assay: C=CC(=O)N1CCC[C@@H](n2nc(-c3ccc(Oc4ccccc4)cc3)c3c(N)ncnc32)C1 [ibrutinib]
The method in brief: as §1

As for DNAJB9 (UniProt Q9UBS3), the log2 fold change in [1] is inactive: -0.09; in the assay with ralimetinib, inactive: -0.018; in assay [2] it was inactive: -0.047; in assay [3], inactive: -0.063; in assay [4], inactive: -0.013; in assay [5], inactive: -0.368. The log2 fold change is inactive: -0.045 in assay [6] and inactive: -0.07 in assay [7].
Turning to DOP1B (UniProt Q9Y3R5), the results for the log2 fold change in assay [1], in assay [5] and in assay [7] were inactive: -0.037, inactive: 0.078 and inactive: -0.084, respectively.
On to DHPS (UniProt M0R1T2), for which the log2 fold change in [8] was inactive: 0.11.
Turning to DNASE1L1 (UniProt P49184), the log2 fold change in [1] was inactive: -0.088; in the assay with ralimetinib, inactive: 0.002; in assay [2], inactive: 0.155; in [8], inactive: -0.247; in assay [6], inactive: -0.081; in [7] it was inactive: -0.044.
Turning to DHX33 (UniProt Q9H6R0), the values for the log2 fold change in assay [1], in assay [4] and in assay [7] were inactive: 0.002, inactive: -0.082 and inactive: -0.051, respectively.
Consider DMBT1 isoform 6 (UniProt Q9UGM3), for which, in [8], the log2 fold change is inactive: 2.46.
For the target DOCK5 (UniProt Q9H7D0), the log2 fold change is inactive: 0.149 in assay [1] and inactive: 0.042 in assay [7].
As for DGKQ (UniProt P52824), the log2 fold change in assay [1] is inactive: -0.002; with ralimetinib, inactive: 0.046; in [2], inactive: -0.049; in [3], inactive: -0.258; in [8], inactive: -0.056; in assay [4], inactive: 0.053. Moreover, the log2 fold change was inactive: 0.066 in assay [6] and inactive: -0.009 in [7].
In the case of DNAJC14 (UniProt Q6Y2X3), the log2 fold change in the assay with ralimetinib was inactive: 0.096; in assay [2], inactive: -0.12; in [4], inactive: -0.024; in [6], inactive: 0.035.
With DLGAP5 isoform 3 (UniProt Q15398), the log2 fold change with ibrutinib was inactive: -0.076; in assay [4], inactive: 0.233.
DNAJC19, A0A2R8Y839: the log2 fold change in [8] is inactive: -0.175; in assay [5], inactive: 0.207.
On to DNTTIP1 (UniProt Q9H147), for which the log2 fold change is inactive: -0.09 in assay [1], inactive: -0.016 in assay [3], inactive: 0.084 in assay [4] and inactive: -0.152 in assay [7].
On to DNAH12 (UniProt Q6ZR08), for which the log2 fold change is inactive: -0.106 in the assay with ibrutinib and inactive: 0.367 in [4].
Consider DHX32 (UniProt Q7L7V1), for which the log2 fold change with ralimetinib was inactive: 0.096; in [2] it was inactive: -0.144; in assay [3], active: -0.387; in [8], inactive: 0.016; in [5] it was inactive: -0.023; in assay [6], inactive: 0.017.
In the case of DLX2 (UniProt Q07687), the log2 fold change with ralimetinib is inactive: 0.036; in assay [2], inactive: -0.013; in assay [3], inactive: 0.021; in assay [6], inactive: 0.106.
Consider DNMT3B (UniProt Q9UBC3), for which the log2 fold change is inactive: 0.163 in the assay with ralimetinib, inactive: -0.134 in assay [2], inactive: -0.121 in assay [8] and inactive: 0.154 in [6].
Turning to DNLZ (UniProt Q5SXM8), the log2 fold change in [1] was inactive: -0.155; with ralimetinib, inactive: 0.031; in assay [2] it was inactive: -0.082; in assay [3] it was inactive: 0.047; in assay [8], inactive: -0.067; in assay [6], inactive: -0.109. For the same target, the log2 fold change in assay [7] was inactive: -0.124.
As to DGCR6L (UniProt Q9BY27), the log2 fold change with ralimetinib was inactive: 0.148; in assay [2] it was inactive: 0.05; in assay [8] it was inactive: 0; in assay [5] it was inactive: 0.044; in assay [6], inactive: -0.067.
For the target DGKE (UniProt P52429), the log2 fold change with ralimetinib is inactive: -0.096; in [2] it was inactive: -0.211; in [3] it was inactive: -0.002; in [4] it was inactive: -0.058; in assay [6] it was inactive: -0.014.
Consider DNAJB14 (UniProt H7C494), for which the log2 fold change was inactive: 0.087 with ralimetinib, inactive: -0.192 in [2], inactive: -0.035 in assay [5] and inactive: 0.012 in [6].
In the case of DMAC1 (UniProt Q96GE9), the values for the log2 fold change (with ralimetinib; in [2]; in assay [6]) were inactive: 0.064, inactive: -0.19 and inactive: 0.205, respectively.
Regarding DOCK2 (UniProt Q92608), the log2 fold change in assay [1] was inactive: 0.115; with ralimetinib, inactive: -0.142; in [2], inactive: 0.05; in assay [3], inactive: -0.109; in [8] it was inactive: 0.163; in [4], inactive: -0.218. Moreover, the log2 fold change in assay [5] was inactive: 0.043; in assay [6], inactive: 0.043; in assay [7] it was inactive: -0.052.
DOT1L isoform 1 (UniProt Q8TEK3): the log2 fold change is inactive: 0.005 in assay [3], inactive: 0.27 in [4] and inactive: -0.334 in assay [5].
Turning to DOK2 (UniProt O60496), the log2 fold change in assay [1] is inactive: 0.187; in the assay with ralimetinib it was inactive: 0.048; in assay [2], inactive: -0.254; in [3], inactive: 0.103; in assay [6], inactive: 0.076; in [7], inactive: -0.043.
As to DNPEP (UniProt B9ZVU2), the log2 fold change is inactive: 0.052 in [1]; inactive: 0.012 in the assay with ralimetinib; inactive: -0.055 in assay [2]; inactive: 0.041 in assay [3]; inactive: 0.009 in assay [8]; inactive: -0.012 in assay [4]. Besides, the log2 fold change in assay [5] is inactive: -0.029; in assay [6], inactive: -0.02; in [7], inactive: -0.077.
As for DNAJC24 (UniProt Q6P3W2), the log2 fold change in assay [1] was inactive: -0.12; with ralimetinib it was inactive: -0.052; in assay [2], inactive: 0.113; in assay [3] it was inactive: -0.067; in assay [8] it was inactive: -0.048; in [4] it was inactive: 0.064. The values for the log2 fold change in assay [5], in assay [6] and in assay [7] were inactive: 0.031, inactive: 0.047 and inactive: 0.064, respectively.
On to DNM2 isoform 4 (UniProt P50570), for which the log2 fold change in assay [1] is inactive: -0.018; with ralimetinib, inactive: 0.011; in [2], inactive: -0.027; in [3], inactive: -0.143; in assay [8] it was inactive: -0.07; in assay [4], inactive: 0.075. The log2 fold change was inactive: -0.08 in assay [5], inactive: 0.047 in assay [6] and inactive: 0.058 in [7].
